Consider nine molecules from publication PMC11670933.

Results are given in words; binding and its absence hold for the method and conditions named. Binding seen in cells or lysates may run through a third protein. Here binding means that the protein was enriched with, or labelled near, the bait; the list need not be complete. No binding means not detected with the bait.

For experiment [1], the target named is truncated human NOTCH2^ΔERA-TurboID (human). As to the kind of experiment: proximity labelling; TurboID fusions stably expressed in HT-29; 500 uM biotin for one hour; streptavidin beads; label-free quantitative mass spectrometry (DIA, Q-Exactive HF X), TurboID alone as control.
Experiment [2] has as its target truncated human NOTCH2^ΔE-TurboID (human). The experiment is described as above.

B1: TXNIP (protein, UniProt Q9H3M7 1-391)
chain: MVMFKKIKSFEVVFNDPEKVYGSGEKVAGRVIVEVCEVTRVKAVRILACGVAKVLWMQGSQQCKQTSEYLRYEDTLLLEDQPTGENEMVIMRPGNKYEYKFGFELPQGPLGTSFKGKYGCVDYWVKAFLDRPSQPTQETKKNFEVVDLVDVNTPDLMAPVSAKKEKKVSCMFIPDGRVSVSARIDRKGFCEGDEISIHADFENTCSRIVVPKAAIVARHTYLANGQTKVLTQKLSSVRGNHIISGTCASWRGKSLRVQKIRPSILGCNILRVEYSLLIYVSVPGSKKVILDLPLVIGSRSGLSSRTSSMASRTSSEMSWVDLNIPDTPEAPPCYMDVIPEDHRLESPTTPLLDDMDGSQDSPIFMYAPEFKFMPPPTYTEVDPCILNNNVQ
Regarding B1, the binding entry in experiment [1] and in experiment [2] was “binds” each time.

B2: MED26 (protein, UniProt O95402 1-600)
chain: MTAAPASPQQIRDRLLQAIDPQSNIRNMVAVLEVISSLEKYPITKEALEETRLGKLINDVRKKTKNEELAKRAKKLLRSWQKLIEPAHQHEAALRGLAGATGSANGGAHNCRPEVGAAGPPRSIHDLKSRNDLQRLPGQRLDRLGSRKRRGDQRDLGHPGPPPKVSKASHDPLVPNSSPLPTNGISGSPESFASSLDGSGHAGPEGSRLERDENDKHSGKIPVNAVRPHTSSPGLGKPPGPCLQPKASVLQQLDRVDETPGPPHPKGPPRCSFSPRNSRHEGSFARQQSLYAPKGSVPSPSPRPQALDATQVPSPLPLAQPSTPPVRRLELLPSAESPVCWLEQPESHQRLAGPGCKAGLSPAEPLLSRAGFSPDSSKADSDAASSGGSDSKKKKRYRPRDYTVNLDGQVAEAGVKPVRLKERKLTFDPMTRQIKPLTQKEPVRADSPVHMEQQSRTELDKQEAKASLQSPFEQTNWKELSRNEIIQSYLSRQSSLLSSSGAQTPGAHHFMSEYLKQEESTRQGARQLHVLVPQSPPTDLPGLTREVTQDDLDRIQASQWPGVNGCQDTQGNWYDWTQCISLDPHGDDGRLNILPYVCLD
As for B2, the binding entry in experiment [1] and in experiment [2] was “binds” throughout.

B3: MED25 (protein, UniProt Q71SY5 1-747)
chain: MVPGSEGPARAGSVVADVVFVIEGTANLGPYFEGLRKHYLLPAIEYFNGGPPAETDFGGDYGGTQYSLVVFNTVDCAPESYVQCHAPTSSAYEFVTWLDGIKFMGGGGESCSLIAEGLSTALQLFDDFKKMREQIGQTHRVCLLICNSPPYLLPAVESTTYSGCTTENLVQQIGERGIHFSIVSPRKLPALRLLFEKAAPPALLEPLQPPTDVSQDPRHMVLVRGLVLPVGGGSAPGPLQSKQPVPLPPAAPSGATLSAAPQQPLPPVPPQYQVPGNLSAAQVAAQNAVEAAKNQKAGLGPRFSPITPLQQAAPGVGPPFSQAPAPQLPPGPPGAPKPPPASQPSLVSTVAPGSGLAPTAQPGAPSMAGTVAPGGVSGPSPAQLGAPALGGQQSVSNKLLAWSGVLEWQEKPKPASVDANTKLTRSLPCQVYVNHGENLKTEQWPQKLIMQLIPQQLLTTLGPLFRNSRMVQFHFTNKDLESLKGLYRIMGNGFAGCVHFPHTAPCEVRVLMLLYSSKKKIFMGLIPYDQSGFVNGIRQVITNHKQVQQQKLEQQQRGMGGQQAPPGLGPILEDQARPSQNLLQLRPPQPQPQGTVGASGATGQPQPQGTAQPPPGAPQGPPGAASGPPPPGPILRPQNPGANPQLRSLLLNPPPPQTGVPPPQASLHHLQPPGAPALLPPPHQGLGQPQLGPPLLHPPPAQSWPAQLPPRAPLPGQMLLSGGPRGPVPQPGLQPSVMEDDILMDLI
Turning to B3, the binding result in experiment [1] and in experiment [2] was “binds” each time.

B4: MED10 (protein, UniProt Q9BTT4 1-135)
chain: MAEKFDHLEEHLEKFVENIRQLGIIVSDFQPSSQAGLNQKLNFIVTGLQDIDKCRQQLHDITVPLEVFEYIDQGRNPQLYTKECLERALAKNEQVKGKIDTMKKFKSLLIQELSKVFPEDMAKYRSIRGEDHPPS
In the case of B4, the binding entry in experiment [1] and in experiment [2] was “binds” each time.

B5: CCNC (protein, UniProt P24863 1-283)
chain: MAGNFWQSSHYLQWILDKQDLLKERQKDLKFLSEEEYWKLQIFFTNVIQALGEHLKLRQQVIATATVYFKRFYARYSLKSIDPVLMAPTCVFLASKVEEFGVVSNTRLIAAATSVLKTRFSYAFPKEFPYRMNHILECEFYLLELMDCCLIVYHPYRPLLQYVQDMGQEDMLLPLAWRIVNDTYRTDLCLLYPPFMIALACLHVACVVQQKDARQWFAELSVDMEKILEIIRVILKLYEQWKNFDERKEMATILSKMPKPKPPPNSEGEQGPNGSQNSSYSQS
Regarding B5, the binding result in experiment [1] and in experiment [2] was “no binding” throughout.

B6: MED20 (protein, UniProt Q9H944 1-212)
chain: MGVTCVSQMPVAEGKSVQQTVELLTRKLEMLGAEKQGTFCVDCETYHTAASTLGSQGQTGKLMYVMHNSEYPLSCFALFENGPCLIADTNFDVLMVKLKGFFQSAKASKIETRGTRYQYCDFLVKVGTVTMGPSARGISVEVEYGPCVVASDCWSLLLEFLQSFLGSHTPGAPAVFGNRHDAVYGPADTMVQYMELFNKIRKQQQVPVAGIR
In the case of B6, the binding result in experiment [1] and in experiment [2] was “binds” in each case.

B7: MED9 (protein, UniProt Q9NWA0 1-146)
chain: MASAGVAAGRQAEDVLPPTSDQPLPDTKPLPPPQPPPVPAPQPQQSPAPRPQSPARAREEENYSFLPLVHNIIKCMDKDSPEVHQDLNALKSKFQEMRKLISTMPGIHLSPEQQQQQLQSLREQVRTKNELLQKYKSLCMFEIPKE
Turning to B7, the binding result in experiment [1] and in experiment [2] was “binds” each time.

B8: MED17 (protein, UniProt Q9NVC6 1-651)
chain: MSGVRAVRISIESACEKQVHEVGLDGTETYLPPLSMSQNLARLAQRIDFSQGSGSEEEEAAGTEGDAQEWPGAGSSADQDDEEGVVKFQPSLWPWDSVRNNLRSALTEMCVLYDVLSIVRDKKFMTLDPVSQDALPPKQNPQTLQLISKKKSLAGAAQILLKGAERLTKSVTENQENKLQRDFNSELLRLRQHWKLRKVGDKILGDLSYRSAGSLFPHHGTFEVIKNTDLDLDKKIPEDYCPLDVQIPSDLEGSAYIKVSIQKQAPDIGDLGTVNLFKRPLPKSKPGSPHWQTKLEAAQNVLLCKEIFAQLSREAVQIKSQVPHIVVKNQIISQPFPSLQLSISLCHSSNDKKSQKFATEKQCPEDHLYVLEHNLHLLIREFHKQTLSSIMMPHPASAPFGHKRMRLSGPQAFDKNEINSLQSSEGLLEKIIKQAKHIFLRSRAAATIDSLASRIEDPQIQAHWSNINDVYESSVKVLITSQGYEQICKSIQLQLNIGVEQIRVVHRDGRVITLSYQEQELQDFLLSQMSQHQVHAVQQLAKVMGWQVLSFSNHVGLGPIESIGNASAITVASPSGDYAISVRNGPESGSKIMVQFPRNQCKDLPKSDVLQDNKWSHLRGPFKEVQWNKMEGRNFVYKMELLMSALSPCLL
Regarding B8, the binding result in experiment [1] and in experiment [2] was “binds” in each case.

B9: MED8 (protein, UniProt Q96G25 1-268)
chain: MQREEKQLEASLDALLSQVADLKNSLGSFICKLENEYGRLTWPSVLDSFALLSGQLNTLNKVLKHEKTPLFRNQVIIPLVLSPDRDEDLMRQTEGRVPVFSHEVVPDHLRTKPDPEVEEQEKQLTTDAARIGADAAQKQIQSLNKMCSNLLEKISKEERESESGGLRPNKQTFNPTDTNALVAAVAFGKGLSNWRPSGSSGPGQAGQPGAGTILAGTSGLQQVQMAGAPSQQQPMLSGVQMAQAGQPGKMPSGIKTNIKSASMHPYQR
For the molecule B9, the binding result in experiment [1] and in experiment [2] was “binds” in each case.
